These results are taken from PMC5996148.

Experiment in all cases: protein microarray (ProtoArray v5.0), streptavidin-Alexa Fluor 647
What all share (details): 3'-biotin; 20 mM Tris (pH 7.5), 5 mM MgCl2, 100 mM KCl, 0.1% Tween-20, A/T-rich and random oligonucleotide blockers; temperature not stated; high values mean tight binding

The test system of one assay is Sequestosome-1 (human).
For assay [1], the system named is Serine/threonine-protein kinase 12 (human).
Assay [2] concerns Serine/threonine-protein kinase MRCK alpha (human).
Assay [3] concerns Serine/threonine-protein kinase ULK4 (human).
Assay [4] has as its system Serine/threonine-protein kinase VRK2 (human).
Assay [5] concerns Serine/threonine-protein kinase VRK3 (human).
Assay [6] concerns Serine/threonine-protein phosphatase 2A 56 kDa regulatory subunit gamma isoform (human).
The subject of assay [7] is Serine/threonine-protein phosphatase 2A 65 kDa regulatory subunit A beta isoform (human).
Assay [8] concerns Serologically defined colon cancer antigen 3 (human).
A further assay concerns Serum albumin (human).
Assay [9] has as its system Serum amyloid A protein (human).
Assay [10] concerns Signal recognition particle 9 kDa protein (human).
The test system of assay [11] is Signal transducer and activator of transcription 4 (human).
In assay [12] the test system is Signal transducer and activator of transcription 6 (human).
Assay [13] deals with Smith-Magenis syndrome chromosome region candidate gene 7 protein (human).
The test system of assay [14] is Sodium channel and clathrin linker 1 (human).
Assay [15] deals with Sodium channel subunit beta-1 (human).
The subject of assay [16] is Sodium/glucose cotransporter 2 (human).
In assay [17] the test system is Solute carrier family 22 member 12 (human).
The test system of assay [18] is Solute carrier family 35 member F2 (human).

Some of the results follow.

With “GGGGACAGGGGTATGGGGAGGGG [G4-3 biotinylated (CtG)]”, the binding signal in the assay with Sequestosome-1 (human) was -0.305 z-score; in [1], 5.47 z-score; in assay [2] it was -0.337 z-score; in [3] it was -0.312 z-score; in assay [4], 3.28 z-score; in [5] it was 3.14 z-score. In addition, the binding signal is -0.336 z-score in [6]; -0.337 z-score in assay [7]; -0.326 z-score in assay [8]; -0.331 z-score with Serum albumin (human); -0.302 z-score in assay [9]; -0.33 z-score in assay [10]. Also, the binding signal was -0.322 z-score in assay [11]; -0.319 z-score in assay [12]; -0.337 z-score in [13]; -0.332 z-score in assay [14]; -0.327 z-score in [15]; -0.33 z-score in [16]. The binding signal in assay [17] is -0.323 z-score; in assay [18] it was -0.322 z-score.
